Source: patent publication US20230348562A1, “Proinsulin Peptides for Type I Diabetes” (King's College London, priority 2019, published 2023)

Tested on: human beta cell granules
Test: Mass spectrometry of C-peptide fragments in human beta cell granules

Row | Sequence | % identification in human samples (n = 6) [%]
1 | EAEDLQVGQV (listed as Homo sapiens) [SEQ ID NO: 33, C-peptide fragment C1 to C10 found in human beta cell granules] | 100
2 | EAEDLQVGQVE (listed as Homo sapiens) [SEQ ID NO: 34, C-peptide fragment C1 to C11 found in human beta cell granules] | 100
3 | EAEDLQVGQVEL (listed as Homo sapiens) [SEQ ID NO: 35, C-peptide fragment C1 to C12 found in human beta cell granules] | 100
4 | EAEDLQVGQVELG (listed as Homo sapiens) [SEQ ID NO: 36, C-peptide fragment C1 to C13 found in human beta cell granules] | 100
5 | EAEDLQVGQVELGG (listed as Homo sapiens) [SEQ ID NO: 37, C-peptide fragment C1 to C14 found in human beta cell granules] | 100
6 | EAEDLQVGQVELGGGPGAGS (listed as Homo sapiens) [SEQ ID NO: 38, C-peptide fragment C1 to C20 found in human beta cell granules] | 100
7 | EAEDLQVGQVELGGGPGAGSLQ (listed as Homo sapiens) [SEQ ID NO: 39, C-peptide fragment C1 to C22 found in human beta cell granules] | 100
8 | EAEDLQVGQVELGGGPGAGSLQP (listed as Homo sapiens) [SEQ ID NO: 40, C-peptide fragment C1 to C23 found in human beta cell granules] | 100
9 | EAEDLQVGQVELGGGPGAGSLQPL (listed as Homo sapiens) [SEQ ID NO: 41, C-peptide fragment C1 to C24 found in human beta cell granules] | 100
10 | EAEDLQVGQVELGGGPGAGSLQPLA (listed as Homo sapiens) [SEQ ID NO: 42, C-peptide fragment C1 to C25 found in human beta cell granules] | 100
11 | EAEDLQVGQVELGGGPGAGSLQPLAL (listed as Homo sapiens) [SEQ ID NO: 43, C-peptide fragment C1 to C26 found in human beta cell granules] | 100
12 | EAEDLQVGQVELGGGPGAGSLQPLALE (listed as Homo sapiens) [SEQ ID NO: 44, C-peptide fragment C1 to C27 found in human beta cell granules] | 100
13 | EAEDLQVGQVELGGGPGAGSLQPLALEG (listed as Homo sapiens) [SEQ ID NO: 45, C-peptide fragment C1 to C28 found in human beta cell granules] | 100
14 | EAEDLQVGQVELGGGPGAGSLQPLALEGS (listed as Homo sapiens) [SEQ ID NO: 46, C-peptide fragment C1 to C29 found in human beta cell granules] | 100
15 | EAEDLQVGQVELGGGPGAGSLQPLALEGSL (listed as Homo sapiens) [SEQ ID NO: 47, C-peptide fragment C1 to C30 found in human beta cell granules] | 100
16 | EAEDLQVGQVELGGGPGAGSLQPLALEGSLQ (listed as Homo sapiens) [SEQ ID NO: 48, C-peptide fragment C1 to C31 found in human beta cell granules] | 100
17 | REAEDLQVGQVELGGGPGAGSLQPL (listed as Homo sapiens) [SEQ ID NO: 31, C-peptide fragment C−1 to C24 found in human beta cell granules] | 100
18 | REAEDLQVGQVELGGGPGAGSLQPLALEGSLQ (listed as Homo sapiens) [SEQ ID NO: 32, C-peptide fragment C−1 to C31 found in human beta cell granules] | 100
